From paper PMC11574141
No constants are given. Whether binding was seen depends on the method and setting. In cells and extracts the contact can be indirect. Some binding calls cover weakened binding; strength is not graded here.

By UniProt entry, the sequences of proteins in these tests, tags left out. Where a name states a change or a piece, a line headed by the entry shows the natural chain unless it says otherwise. Chains listed by the source or under a name are the forms on record and can include a tag or linker. Residues count along the entry.
UniProt B0V2N1, residues 30-1907: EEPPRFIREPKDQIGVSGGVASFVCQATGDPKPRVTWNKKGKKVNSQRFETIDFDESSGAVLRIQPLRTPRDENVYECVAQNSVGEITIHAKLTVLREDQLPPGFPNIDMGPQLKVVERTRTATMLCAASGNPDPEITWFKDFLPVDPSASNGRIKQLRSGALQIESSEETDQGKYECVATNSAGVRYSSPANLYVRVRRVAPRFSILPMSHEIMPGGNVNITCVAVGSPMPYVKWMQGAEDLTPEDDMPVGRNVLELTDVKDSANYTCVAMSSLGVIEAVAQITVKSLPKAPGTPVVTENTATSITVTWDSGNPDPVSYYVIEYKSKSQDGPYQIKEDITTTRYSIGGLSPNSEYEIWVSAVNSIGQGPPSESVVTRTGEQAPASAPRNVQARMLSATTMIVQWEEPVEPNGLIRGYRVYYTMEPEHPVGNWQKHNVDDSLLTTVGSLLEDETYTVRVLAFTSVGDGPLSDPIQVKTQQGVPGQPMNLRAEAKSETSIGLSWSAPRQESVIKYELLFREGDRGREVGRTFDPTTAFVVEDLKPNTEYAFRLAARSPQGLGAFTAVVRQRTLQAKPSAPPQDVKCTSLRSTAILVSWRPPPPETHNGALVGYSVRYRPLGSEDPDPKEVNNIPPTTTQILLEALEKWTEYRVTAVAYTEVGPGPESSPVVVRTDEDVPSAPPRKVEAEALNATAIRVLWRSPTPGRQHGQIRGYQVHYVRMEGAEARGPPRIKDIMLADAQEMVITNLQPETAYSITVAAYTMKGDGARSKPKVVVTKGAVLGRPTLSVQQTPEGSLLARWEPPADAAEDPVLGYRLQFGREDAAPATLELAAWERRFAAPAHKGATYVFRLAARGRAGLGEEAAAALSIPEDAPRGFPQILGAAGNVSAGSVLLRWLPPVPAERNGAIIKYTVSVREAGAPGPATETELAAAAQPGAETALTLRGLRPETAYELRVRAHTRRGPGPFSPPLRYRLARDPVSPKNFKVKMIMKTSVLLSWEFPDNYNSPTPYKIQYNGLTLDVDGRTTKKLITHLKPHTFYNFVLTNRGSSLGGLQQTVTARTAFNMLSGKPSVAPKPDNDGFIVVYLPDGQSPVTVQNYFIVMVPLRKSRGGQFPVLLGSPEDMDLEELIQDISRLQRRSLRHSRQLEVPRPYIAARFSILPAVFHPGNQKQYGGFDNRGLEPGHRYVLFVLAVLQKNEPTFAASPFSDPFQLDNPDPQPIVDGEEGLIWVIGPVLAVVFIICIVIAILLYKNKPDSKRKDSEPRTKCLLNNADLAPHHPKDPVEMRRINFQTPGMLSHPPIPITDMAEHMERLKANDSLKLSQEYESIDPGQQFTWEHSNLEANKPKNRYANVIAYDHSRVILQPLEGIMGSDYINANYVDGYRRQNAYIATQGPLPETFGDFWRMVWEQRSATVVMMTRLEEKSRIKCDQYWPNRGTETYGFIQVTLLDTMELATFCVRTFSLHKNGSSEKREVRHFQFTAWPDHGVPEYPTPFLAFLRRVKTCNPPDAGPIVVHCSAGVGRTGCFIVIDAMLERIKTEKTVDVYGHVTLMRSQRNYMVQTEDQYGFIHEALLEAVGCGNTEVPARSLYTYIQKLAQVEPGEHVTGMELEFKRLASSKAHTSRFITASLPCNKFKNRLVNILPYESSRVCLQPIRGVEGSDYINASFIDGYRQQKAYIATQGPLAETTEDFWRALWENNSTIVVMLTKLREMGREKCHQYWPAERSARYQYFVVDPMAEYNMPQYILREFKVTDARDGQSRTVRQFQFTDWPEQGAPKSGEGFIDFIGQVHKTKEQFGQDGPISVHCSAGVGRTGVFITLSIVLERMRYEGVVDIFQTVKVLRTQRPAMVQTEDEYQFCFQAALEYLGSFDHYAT
TrkC TK+ (tropomyosin receptor kinase C, isoform with the intracellular tyrosine kinase domain), wild type (Q6VNS1, residues 32-825): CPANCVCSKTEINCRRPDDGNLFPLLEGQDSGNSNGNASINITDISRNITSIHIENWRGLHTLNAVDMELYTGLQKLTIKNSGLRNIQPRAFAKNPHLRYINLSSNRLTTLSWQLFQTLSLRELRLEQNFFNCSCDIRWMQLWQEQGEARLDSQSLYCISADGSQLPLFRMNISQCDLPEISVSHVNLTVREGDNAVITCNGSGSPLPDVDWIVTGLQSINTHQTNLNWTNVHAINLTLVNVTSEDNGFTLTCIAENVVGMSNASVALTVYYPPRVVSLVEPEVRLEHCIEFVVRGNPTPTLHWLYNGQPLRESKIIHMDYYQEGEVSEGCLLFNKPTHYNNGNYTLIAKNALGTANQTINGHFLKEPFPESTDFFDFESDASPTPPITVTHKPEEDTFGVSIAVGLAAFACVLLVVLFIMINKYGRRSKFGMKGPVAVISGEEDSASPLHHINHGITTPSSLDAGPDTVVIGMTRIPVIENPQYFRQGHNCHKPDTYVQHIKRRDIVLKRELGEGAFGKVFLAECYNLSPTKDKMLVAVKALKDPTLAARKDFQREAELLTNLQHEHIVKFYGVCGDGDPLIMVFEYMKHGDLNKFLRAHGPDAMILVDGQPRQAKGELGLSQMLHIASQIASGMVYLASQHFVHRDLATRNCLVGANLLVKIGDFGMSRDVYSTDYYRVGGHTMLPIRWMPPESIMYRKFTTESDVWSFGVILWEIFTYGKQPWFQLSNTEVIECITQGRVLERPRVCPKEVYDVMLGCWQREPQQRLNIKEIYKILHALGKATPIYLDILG
TrkC TK+ D240A;D242A (knock-in mutant) (Q6VNS1, form named): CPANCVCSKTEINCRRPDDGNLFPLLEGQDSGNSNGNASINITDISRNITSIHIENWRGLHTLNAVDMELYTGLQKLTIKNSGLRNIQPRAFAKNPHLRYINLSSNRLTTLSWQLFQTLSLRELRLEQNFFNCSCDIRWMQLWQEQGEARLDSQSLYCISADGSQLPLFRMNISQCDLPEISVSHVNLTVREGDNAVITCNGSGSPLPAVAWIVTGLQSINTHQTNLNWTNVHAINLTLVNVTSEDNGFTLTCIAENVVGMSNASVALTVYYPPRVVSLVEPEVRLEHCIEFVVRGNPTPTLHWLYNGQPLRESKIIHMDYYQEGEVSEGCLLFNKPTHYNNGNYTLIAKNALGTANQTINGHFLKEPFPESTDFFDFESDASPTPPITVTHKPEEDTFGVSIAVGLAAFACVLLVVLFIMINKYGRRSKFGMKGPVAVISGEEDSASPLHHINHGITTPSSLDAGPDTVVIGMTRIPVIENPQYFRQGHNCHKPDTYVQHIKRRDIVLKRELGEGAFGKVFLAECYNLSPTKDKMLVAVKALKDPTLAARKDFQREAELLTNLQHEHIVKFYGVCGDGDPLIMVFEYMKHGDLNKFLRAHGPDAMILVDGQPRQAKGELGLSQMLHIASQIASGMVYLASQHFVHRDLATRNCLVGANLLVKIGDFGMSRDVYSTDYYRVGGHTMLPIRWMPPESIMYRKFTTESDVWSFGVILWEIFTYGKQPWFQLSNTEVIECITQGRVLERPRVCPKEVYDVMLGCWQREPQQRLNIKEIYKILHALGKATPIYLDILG

Target: protein tyrosine phosphatase sigma (PTPσ) (mouse (endogenous in brain)) (UniProt B0V2N1)
Assay: co-IP; crude synaptosomes from 4-week-old WT and homozygous KI littermate mouse brains lysed in cold lysis buffer; pre-cleared supernatant incubated with Protein G Sepharose beads coated with anti-PTPσ antibody (clone 17G7.2) overnight at 4 °C; immunoblotting for TrkC and PTPσ

| binding | Substance |
| --- | --- |
| binds | TrkC TK+ (tropomyosin receptor kinase C, isoform with the intracellular tyrosine kinase domain), wild type (from UniProt Q6VNS1 32-825) |
| no binding | TrkC TK+ D240A;D242A (knock-in mutant) (from UniProt Q6VNS1 32-825) (receptor) |
